Results on one molecule are retold here after publication doi:10.1101/2020.12.29.424673.

By UniProt entry, the sequences of proteins in these tests, tags left out. Where a name states a change or a piece, a line headed by the entry shows the natural chain unless it says otherwise.
UniProt P61586: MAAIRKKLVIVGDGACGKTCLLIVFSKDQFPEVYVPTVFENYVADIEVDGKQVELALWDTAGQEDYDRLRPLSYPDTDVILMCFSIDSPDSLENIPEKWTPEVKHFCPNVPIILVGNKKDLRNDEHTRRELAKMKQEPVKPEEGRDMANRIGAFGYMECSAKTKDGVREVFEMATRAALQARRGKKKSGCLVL

For this test, the target named is GST-RhoA G17A (UniProt P61586). The test is described as follows: pull-down.

These are yes or no findings as the source states them, for the method shown. Binding seen in cells or lysates may run through a third protein. Some entries that bind do so weakly or less than the wild type.

B1: GEF-H1 (RhoA guanine nucleotide exchange factor), mouse, endogenous (protein, UniProt Q60875 1-985)
chain: MSRIESLTRARIDRSKEQATKTREKEKMKEAKDARYTNGHLFTTISVSGMTMCYACNKSITAKEALICPTCNVTIHNRCKDTLANCTKVKQKQQKAALLRNNTALQSVSLRSKTTTRERPTSAIYPSDSFRQSLLGSRRGLSSLSLAKSVSTTNIAGHFNDESPLGLRQILSQSTDSLNMRNRTLSVESLIDEGVEVFYNELMSDFEMDEKDFEADSWSLAVDSSFLQQHKKEVMKKQDVIYELIQTELHHVRTLKIMTRLFRTGMLEELQMEPEVVQGLFPCVDELSDIHTRFLNQLLERRRQALCPGSTRNFVIHRLGDLLISQFSGSNAEQMRKTYSEFCSRHTKALKLYKELYARDKRFQQFIRKMTRSAVLKRHGVQECILLVTQRITKYPVLINRILQNSHGVEEEYQDLASALGLVKELLSNVDQDVHELEKEARLQEIYNRMDPRAQTPVPGKGPFGRDELLRRKLIHEGCLLWKTATGRFKDVLLLLMTDVLVFLQEKDQKYIFTSLDKPSVVSLQNLIVRDIANQAKGMFLISSGPPEMYEVHAASRDDRTTWIRVIQQSVRLCPSREDFPLIETEDKAYLRRIKTKLQQKNQALVELLQKNVELFAEMVHFQALKAGFVGMPPPALPRGLFRLESFESLRGERLLKDALREVEGLKDLLLGPCVDLPMTSREPALPLDSDSGSCPGVTANGEARTFNGSIELCRADSDSSQKDRNGNQLRSPQEEVLQPLINLYGLLHGLQAVVVQQERLMEALFPEGPERWEKLSRANSRDGEAGRAAVASVTPEKQATELALLQRQHTLLQEELRRCQRLGEERATEAGSLEARLRESEQARALLEREAEEIRRQLAALGQNEPLPAEAPWARRPLDPRRRSLPAGDALYLSFNPPQPSRGHDRLDLPVTVRSLHRPFDDREAQELGSPEDRLQDSSDPDTGSEEEVSSRLSPPHSPRDFTRMQDIPEETESRDGEPTASES
In the case of B1, the binding entry is “binds”.
